# Measurements taken from patent US20100113430A1, “THIOXANTHENE DERIVATES USEFUL TO TREAT INFECTIOUS DISEASES” (BKG PHARMA APS, priority 2007, published 2010).
# Test system: clinically relevant resistant bacterial isolate S. Aureus
# Experiment: Growth inhibition by cis/trans combinations, resistant isolate S. Aureus
# Type: cell-based
# Conditions: Cis-compound 16 μg/ml, Trans-compound 0 μg/ml; MIC(cis alone)/MIC(cis in cis-trans mixture) × 100
# Experimental: Cell growth was tested using the Minimal Inhibitory Concentration (MIC) susceptibility tests by use of the microdilution broth method in accordance to the NCCLS Guidelines (NCCLS Guidelines, Methods for Dilution Antimicrobial Susceptibility Tests for Bacteria That Grow Aerobically; Approved Standard, Sixth Edition, Volume 23; Number 2). The minimum inhibitory concentration (MIC), is defined ad the lowest concentration of drug which inhibits growth of the test organism, in the sense that no visible growth is detected (total inhibition of growth). In example 2 MIC of the compounds used on fungal microorganisms was determined from the IC90 measurements according to NCCLS Guidelines.
# A log phase culture of bacteria was diluted with fresh pre-warmed Mueller-Hinton medium and adjusted to a defined OD at 600 nm in order to give a final concentration of 1×10^4-5 bacteria/ml medium. The bacterial culture was transferred to microtiter-plates and culture was added to each well. Drug was added to the bacterial culture in the wells as two-fold dilution series of drug in order to give final concentrations ranging from 0.03 to 128 μg/ml. Trays were incubated at 37° C. by shaking in a robot analyzer, PowerWavex, software KC^4′ Kebo.Lab, Copenhagen, for 16 h and optical densities were measured at 600 nm during the incubation time in order to record growth curves. […]
compound,measurement,value
"Clc1ccc2c(c1)/C(=C\CCN1CCNCC1)c1ccccc1S2 [N-dealkyl-cis-clopenthixol, cis-1-(3-(2-chlorothioxanthen-9-ylidene)propyl)piperazine]",Effect index (cis-compound),100
